Construct, isoform or probe ends are uncertain for at least one entry. For part of these data: A negative result means that nothing was seen under these conditions.
How the values were obtained:
Experiment in all cases: enzyme reaction in vitro
[1] = tested on: XhoI activity (M. smegmatis extract) (Mycobacterium smegmatis); conditions: 5'-amine and 3'-amine, protein in an extract, folded or branched DNA
XhoI = conditions: 5'-amine and 3'-amine, purified recombinant protein, protein details: New England Biolabs, folded or branched DNA
SacII = conditions: 5'-amine and 3'-amine, purified recombinant protein, protein details: New England Biolabs, folded or branched DNA
MboI = conditions: 5'-amine and 3'-amine, 2 units, RCA readout, purified recombinant protein, protein details: New England Biolabs, folded or branched DNA
BciVI = conditions: 5'-amine and 3'-amine, 2 units, RCA readout, purified recombinant protein, protein details: New England Biolabs, folded or branched DNA
[2] = off-target enzyme, 2 units, pair SEQ 5+6
[3] = off-target enzyme, 2 units, pair SEQ 3+4
[4] = off-target enzyme, 2 units, pair SEQ 7+8
[5] = off-target enzyme, 2 units, pair SEQ 1+2

ATTCACTCTCGAGAGCGCTTAGGAGTGCATATACGATGCACTGTGAAGATCGCTTATGCATCGTATATGCACTCCTAAGCGCTCTCGAGAGTGAAT [REN2B-PB-XhoI]
activity on this sequence ([1]; pair with SEQ 3, extract, RY13 extract gives no signal): active
activity on this sequence (XhoI; pair with SEQ 3, LNA primer RCA readout): active

ATTTCCACCGCGGTGGGTATAGGAACTTCGAACGACTCGACTGTGAAGATCGCTTATCGAGTCGTTCGAAGTTCCTATACCCACCGCGGTGGAAAT [REN2-PB-SacII]
activity on this sequence (SacII; pair with SEQ 5, RCA readout): active
activity on this sequence (XhoI; [2]): not active

ATTTCCACTCGAGTGGGTATAGGAACTTCGAACGACTCGACTGTGAAGATCGCTTATCGAGTCGTTCGAAGTTCCTATACCCACTCGAGTGGAAAT [REN2-PB-XhoI]
activity on this sequence (SacII; [3]): not active
activity on this sequence ([1]; pair with SEQ 3, identical stems, off-target signal with RY13 extract): active
activity on this sequence (XhoI; pair with SEQ 3, RCA readout): active

ATTTCCACTGCAGTGGGTATAGGAACTTCGAACGACTCGACTGTGAAGATCGCTTATCGAGTCGTTCGAAGTTCCTATACCCACTGCAGTGGAAAT [REN2-PB-PstI]
activity on this sequence (SacII; [4]): not active
activity on this sequence (XhoI; [4]): not active

ATTTCCAGAATTCTGGGTATAGGAACTTCGAACGACTCGACTGTGAAGATCGCTTATCGAGTCGTTCGAAGTTCCTATACCCAGAATTCTGGAAAT [REN2-PB-EcoRI]
activity on this sequence (SacII; [5]): not active
activity on this sequence (XhoI; [5]): not active

ATTTCCAGATCTGGGTATAGGAACTTCGAACGACTCGACTGTGAAGATCGCTTATCGAGTCGTTCGAAGTTCCTATACCCAGATCTGGAAAT [REN2-PB-MboI]
activity on this sequence (MboI; pair with SEQ 15): active

ATTTCCAGTATCCTTTAAATGGGACTTCGAACGACTCGACTGTGAAGATCGCTTATCGAGTCGTTCGAAGTCCCATTTAAAGGATACTGGAAAT [REN2-PB-BciVI]
activity on this sequence (BciVI; pair with SEQ 13): active

ATTTGACCCGCGGGTCGTATAGGAACTTCGAACGACTCGCCTCAATGCACATGTTTGGCTCCCGAGTCGTTCGAAGTTCCTATACGACCCGCGGGTCAAAT [REN2-ID33-SacII]
activity on this sequence (SacII; pair with SEQ 6, RCA readout): active
activity on this sequence (XhoI; [2]): not active

ATTTGACCTCGAGGTCGTATAGGAACTTCGAACGACTCGCCTCAATGCACATGTTTGGCTCCCGAGTCGTTCGAAGTTCCTATACGACCTCGAGGTCAAAT [REN2-ID33-XhoI]
activity on this sequence (SacII; [3]): not active
activity on this sequence ([1]; pair with SEQ 18 or SEQ 4, extract): active
activity on this sequence (XhoI; pair with SEQ 4, RCA readout): active

ATTTGACCTGCAGGTCGTATAGGAACTTCGAACGACTCGCCTCAATGCACATGTTTGGCTCCCGAGTCGTTCGAAGTTCCTATACGACCTGCAGGTCAAAT [REN2-ID33-PstI]
activity on this sequence (SacII; [4]): not active
activity on this sequence (XhoI; [4]): not active

ATTTGACGAATTCGTCGTATAGGAACTTCGAACGACTCGCCTCAATGCACATGTTTGGCTCCCGAGTCGTTCGAAGTTCCTATACGACGAATTCGTCAAAT [REN2-ID33-EcoRI]
activity on this sequence (SacII; [5]): not active
activity on this sequence (XhoI; [5]): not active

ATTTGACGATCGTCGTATAGGAACTTCGAACGACTCGCCTCAATGCACATGTTTGGCTCCCGAGTCGTTCGAAGTTCCTATACGACGATCGTCAAAT [REN2-ID33-MboI]
activity on this sequence (MboI; pair with SEQ 16): active

ATTTGACGTATCCAAATTTGTCGACTTCGAACGACTCGCCTCAATGCACATGTTTGGCTCCCGAGTCGTTCGAAGTCGACAAATTTGGATACGTCAAAT [REN2-ID33-BciVI]
activity on this sequence (BciVI; pair with SEQ 14): active
